Data taken from publication doi:10.1101/448084.

By UniProt entry, the sequences of proteins in these tests, tags left out. Where a name states a change or a piece, a line headed by the entry shows the natural chain unless it says otherwise.
UniProt Q0WNJ6: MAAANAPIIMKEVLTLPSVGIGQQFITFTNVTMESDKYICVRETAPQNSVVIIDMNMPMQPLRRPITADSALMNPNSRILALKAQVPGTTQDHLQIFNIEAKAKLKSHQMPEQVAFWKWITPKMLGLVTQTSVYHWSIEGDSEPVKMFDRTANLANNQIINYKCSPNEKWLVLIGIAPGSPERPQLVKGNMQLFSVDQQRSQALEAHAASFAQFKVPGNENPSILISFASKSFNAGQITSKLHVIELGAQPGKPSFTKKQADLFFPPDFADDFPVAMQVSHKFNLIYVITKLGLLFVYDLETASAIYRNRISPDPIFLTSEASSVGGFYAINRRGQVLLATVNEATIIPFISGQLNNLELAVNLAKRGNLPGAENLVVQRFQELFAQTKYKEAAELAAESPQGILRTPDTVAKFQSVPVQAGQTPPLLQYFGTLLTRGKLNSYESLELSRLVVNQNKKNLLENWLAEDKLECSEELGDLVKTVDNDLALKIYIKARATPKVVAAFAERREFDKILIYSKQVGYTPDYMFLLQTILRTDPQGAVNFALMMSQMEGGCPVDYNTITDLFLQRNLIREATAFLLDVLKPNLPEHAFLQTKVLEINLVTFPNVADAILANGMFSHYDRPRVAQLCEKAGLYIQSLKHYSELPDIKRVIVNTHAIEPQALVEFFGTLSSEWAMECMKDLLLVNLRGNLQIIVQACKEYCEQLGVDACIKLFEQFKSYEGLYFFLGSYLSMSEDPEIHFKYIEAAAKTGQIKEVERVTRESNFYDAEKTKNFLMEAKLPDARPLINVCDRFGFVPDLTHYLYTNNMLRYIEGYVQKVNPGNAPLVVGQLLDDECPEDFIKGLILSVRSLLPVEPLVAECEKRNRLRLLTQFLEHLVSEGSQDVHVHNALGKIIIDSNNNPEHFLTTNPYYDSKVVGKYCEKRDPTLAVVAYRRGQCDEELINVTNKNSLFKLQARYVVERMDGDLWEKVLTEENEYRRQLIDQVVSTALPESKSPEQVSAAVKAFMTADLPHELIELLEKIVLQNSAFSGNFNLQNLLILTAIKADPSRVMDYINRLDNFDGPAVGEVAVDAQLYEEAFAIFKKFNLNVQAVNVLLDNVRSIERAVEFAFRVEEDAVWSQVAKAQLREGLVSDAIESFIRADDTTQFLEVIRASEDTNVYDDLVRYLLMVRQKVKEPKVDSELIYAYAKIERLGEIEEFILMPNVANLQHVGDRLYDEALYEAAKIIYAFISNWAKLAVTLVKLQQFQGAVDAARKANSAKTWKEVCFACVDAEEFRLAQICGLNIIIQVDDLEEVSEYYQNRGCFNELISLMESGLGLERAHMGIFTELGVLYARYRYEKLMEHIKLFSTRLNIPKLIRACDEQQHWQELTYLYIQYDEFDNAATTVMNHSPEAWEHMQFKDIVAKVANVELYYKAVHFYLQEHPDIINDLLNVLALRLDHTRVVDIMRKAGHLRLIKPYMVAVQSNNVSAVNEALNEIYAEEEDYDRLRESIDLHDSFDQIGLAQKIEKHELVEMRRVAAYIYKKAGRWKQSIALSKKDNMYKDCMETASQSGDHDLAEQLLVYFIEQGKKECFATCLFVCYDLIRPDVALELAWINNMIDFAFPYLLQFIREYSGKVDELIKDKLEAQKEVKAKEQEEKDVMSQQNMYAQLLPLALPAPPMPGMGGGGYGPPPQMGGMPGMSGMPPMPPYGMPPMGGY

Target: T1, STRUBBELIG (SUB) fused to EGFP (SUB:EGFP), expressed from pUBQ::SUB:EGFP (Arabidopsis thaliana) (UniProt Q8RWZ1)
T1 sequence: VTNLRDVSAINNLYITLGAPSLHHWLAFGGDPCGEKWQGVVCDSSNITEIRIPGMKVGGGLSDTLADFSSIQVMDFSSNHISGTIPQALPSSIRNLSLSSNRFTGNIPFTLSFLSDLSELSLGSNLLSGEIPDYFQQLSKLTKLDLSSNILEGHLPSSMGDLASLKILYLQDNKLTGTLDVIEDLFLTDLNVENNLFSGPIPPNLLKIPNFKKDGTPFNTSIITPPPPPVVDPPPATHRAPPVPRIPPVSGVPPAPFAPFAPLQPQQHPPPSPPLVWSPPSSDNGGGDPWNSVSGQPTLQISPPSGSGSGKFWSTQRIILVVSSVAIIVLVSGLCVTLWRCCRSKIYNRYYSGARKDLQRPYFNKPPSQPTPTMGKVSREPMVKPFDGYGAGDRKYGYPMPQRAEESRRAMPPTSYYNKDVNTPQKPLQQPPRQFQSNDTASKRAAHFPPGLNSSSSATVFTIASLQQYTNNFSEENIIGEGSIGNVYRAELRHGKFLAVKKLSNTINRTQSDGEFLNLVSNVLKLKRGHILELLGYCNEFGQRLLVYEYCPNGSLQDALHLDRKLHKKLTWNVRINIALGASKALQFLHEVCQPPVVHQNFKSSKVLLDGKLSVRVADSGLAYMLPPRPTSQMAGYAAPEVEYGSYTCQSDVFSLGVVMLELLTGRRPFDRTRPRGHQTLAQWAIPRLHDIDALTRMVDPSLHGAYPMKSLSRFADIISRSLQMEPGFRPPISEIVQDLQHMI
Test: co-IP

binding: binds
Substance: clathrin heavy chain (CHC), endogenous (from UniProt Q0WNJ6)

No constants are given. Whether binding was seen depends on the method and setting. Binding seen in cells or lysates may run through a third protein. A result given as binding can be weak or reduced; the word gives no strength. Tags and fused reporters may be left off the sequences shown.
